{"source": "the supplement of paper PMC8728848", "test_in_all_cases": "glycan array binding signal (z-score within array); higher = stronger binding", "conditions_in_all_cases": "glycan notation: IUPAC condensed, linker removed", "key": {"Neu5Ac(a2-3)GalNAc": {"biological_target": "Neu5Ac(a2-3)GalNAc", "summary_of_the_method": "(§1)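 The binding signal is a Z-score computed within each array and averaged over linkers. Arrays of the same protein sequence at different concentrations or buffers were also averaged together. Data originate from 3228 arrays in the Consortium for Functional Glycomics database, kept only where the protein sequence was available.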"}, "[1]": {"biological_target": "Neu5Ac(a2-3)GalNAc(b1-4)GlcNAc", "summary_of_the_method": "as §1"}, "[2]": {"biological_target": "Neu5Ac(a2-3)[GalNAc(b1-4)]Gal(b1-4)Glc", "summary_of_the_method": "as §1"}, "[3]": {"biological_target": "Neu5Ac(a2-3)[GalNAc(b1-4)]Gal(b1-4)GlcNAc", "summary_of_the_method": "as §1"}, "[4]": {"biological_target": "Neu5Ac(a2-3)[GalNAc(b1-4)]Gal(b1-4)GlcNAc(b1-3)GalNAc", "summary_of_the_method": "as §1"}, "[5]": {"biological_target": "Neu5Ac(a2-3)[Neu5Ac(a2-6)]GalNAc", "summary_of_the_method": "as §1"}, "Neu5Ac(a2-6)Gal": {"biological_target": "Neu5Ac(a2-6)Gal", "summary_of_the_method": "as §1"}, "[6]": {"biological_target": "Neu5Ac(a2-6)Gal(b1-3)GlcNAc(b1-3)[Gal(b1-4)GlcNAc(b1-6)]Gal(b1-4)Glc", "summary_of_the_method": "as §1"}, "Neu5Ac(a2-6)Gal(b1-4)Glc": {"biological_target": "Neu5Ac(a2-6)Gal(b1-4)Glc", "summary_of_the_method": "as §1"}, "[7]": {"biological_target": "Neu5Ac(a2-6)Gal(b1-4)GlcNAc", "summary_of_the_method": "as §1"}, "[8]": {"biological_target": "Neu5Ac(a2-6)Gal(b1-4)GlcNAc(b1-2)Man", "summary_of_the_method": "as §1"}, "[9]": {"biological_target": "Neu5Ac(a2-6)Gal(b1-4)GlcNAc(b1-2)Man(a1-3)Man(b1-4)GlcNAc(b1-4)GlcNAc", "summary_of_the_method": "as §1"}, "[10]": {"biological_target": "Neu5Ac(a2-6)Gal(b1-4)GlcNAc(b1-2)Man(a1-3)[Gal(b1-4)GlcNAc(b1-2)Man(a1-6)]Man(b1-4)GlcNAc(b1-4)GlcNAc", "summary_of_the_method": "as §1"}, "[11]": {"biological_target": "Neu5Ac(a2-6)Gal(b1-4)GlcNAc(b1-2)Man(a1-3)[GlcNAc(b1-2)Man(a1-6)]Man(b1-4)GlcNAc(b1-4)GlcNAc", "summary_of_the_method": "as §1"}, "[12]": {"biological_target": "Neu5Ac(a2-6)Gal(b1-4)GlcNAc(b1-2)Man(a1-3)[GlcNAc(b1-4)][Neu5Ac(a2-6)Gal(b1-4)GlcNAc(b1-2)Man(a1-6)]Man(b1-4)GlcNAc(b1-4)GlcNAc", "summary_of_the_method": "as §1"}, "[13]": {"biological_target": "Neu5Ac(a2-6)Gal(b1-4)GlcNAc(b1-2)Man(a1-3)[Man(a1-6)]Man(b1-4)GlcNAc(b1-4)GlcNAc", "summary_of_the_method": "as §1"}, "[14]": {"biological_target": "Neu5Ac(a2-6)Gal(b1-4)GlcNAc(b1-2)Man(a1-3)[Neu5Ac(a2-3)Gal(b1-4)GlcNAc(b1-2)Man(a1-6)]Man(b1-4)GlcNAc(b1-4)GlcNAc", "summary_of_the_method": "as §1"}, "[15]": {"biological_target": "Neu5Ac(a2-6)Gal(b1-4)GlcNAc(b1-2)Man(a1-3)[Neu5Ac(a2-6)Gal(b1-4)GlcNAc(b1-2)Man(a1-6)]Man(b1-4)GlcNAc(b1-4)GlcNAc", "summary_of_the_method": "as §1"}, "[16]": {"biological_target": "Neu5Ac(a2-6)Gal(b1-4)GlcNAc(b1-2)Man(a1-3)[Neu5Ac(a2-6)Gal(b1-4)GlcNAc(b1-2)Man(a1-6)]Man(b1-4)GlcNAc(b1-4)[Fuc(a1-6)]GlcNAc", "summary_of_the_method": "as §1"}, "[17]": {"biological_target": "Neu5Ac(a2-6)Gal(b1-4)GlcNAc(b1-2)Man(a1-6)Man(b1-4)GlcNAc(b1-4)GlcNAc", "summary_of_the_method": "as §1"}, "[18]": {"biological_target": "Neu5Ac(a2-6)Gal(b1-4)GlcNAc(b1-2)Man(a1-6)[Gal(b1-4)GlcNAc(b1-2)Man(a1-3)]Man(b1-4)GlcNAc(b1-4)GlcNAc", "summary_of_the_method": "as §1"}, "[19]": {"biological_target": "Neu5Ac(a2-6)Gal(b1-4)GlcNAc(b1-2)Man(a1-6)[GlcNAc(b1-2)Man(a1-3)]Man(b1-4)GlcNAc(b1-4)GlcNAc", "summary_of_the_method": "as §1"}, "[20]": {"biological_target": "Neu5Ac(a2-6)Gal(b1-4)GlcNAc(b1-2)Man(a1-6)[Man(a1-3)]Man(b1-4)GlcNAc(b1-4)GlcNAc", "summary_of_the_method": "as §1"}, "[21]": {"biological_target": "Neu5Ac(a2-6)Gal(b1-4)GlcNAc(b1-2)[Neu5Ac(a2-6)Gal(b1-4)GlcNAc(b1-4)]Man(a1-3)[GlcNAc(b1-4)][Neu5Ac(a2-6)Gal(b1-4)GlcNAc(b1-2)[Neu5Ac(a2-6)Gal(b1-4)GlcNAc(b1-6)]Man(a1-6)]Man(b1-4)GlcNAc(b1-4)GlcNAc", "summary_of_the_method": "as §1"}, "[22]": {"biological_target": "Neu5Ac(a2-6)Gal(b1-4)GlcNAc(b1-2)[Neu5Ac(a2-6)Gal(b1-4)GlcNAc(b1-4)]Man(a1-3)[GlcNAc(b1-4)][Neu5Ac(a2-6)Gal(b1-4)GlcNAc(b1-4)Man(a1-6)]Man(b1-4)GlcNAc(b1-4)GlcNAc", "summary_of_the_method": "as §1"}, "[23]": {"biological_target": "Neu5Ac(a2-6)Gal(b1-4)GlcNAc(b1-2)[Neu5Ac(a2-6)Gal(b1-4)GlcNAc(b1-6)]Man(a1-6)[Neu5Ac(a2-6)Gal(b1-4)GlcNAc(b1-2)Man(a1-3)][GlcNAc(b1-4)]Man(b1-4)GlcNAc(b1-4)GlcNAc", "summary_of_the_method": "as §1"}, "[24]": {"biological_target": "Neu5Ac(a2-6)Gal(b1-4)GlcNAc(b1-3)Gal(b1-3)GlcNAc", "summary_of_the_method": "as §1"}, "[25]": {"biological_target": "Neu5Ac(a2-6)Gal(b1-4)GlcNAc(b1-3)Gal(b1-4)GlcNAc", "summary_of_the_method": "as §1"}, "[26]": {"biological_target": "Neu5Ac(a2-6)Gal(b1-4)GlcNAc(b1-3)Gal(b1-4)GlcNAc(b1-2)Man(a1-3)[Neu5Ac(a2-6)Gal(b1-4)GlcNAc(b1-3)Gal(b1-4)GlcNAc(b1-2)Man(a1-6)]GalNAc", "summary_of_the_method": "as §1"}, "[27]": {"biological_target": "Neu5Ac(a2-6)Gal(b1-4)GlcNAc(b1-3)Gal(b1-4)GlcNAc(b1-3)Gal(b1-4)GlcNAc", "summary_of_the_method": "as §1"}, "[28]": {"biological_target": "Neu5Ac(a2-6)Gal(b1-4)GlcNAc(b1-3)Gal(b1-4)GlcNAc(b1-3)Gal(b1-4)GlcNAc(b1-2)Man(a1-3)[Neu5Ac(a2-6)Gal(b1-4)GlcNAc(b1-3)Gal(b1-4)GlcNAc(b1-3)Gal(b1-4)GlcNAc(b1-2)Man(a1-6)]GalNAc", "summary_of_the_method": "as §1"}, "[29]": {"biological_target": "Neu5Ac(a2-6)Gal(b1-4)GlcNAc(b1-3)Gal(b1-4)GlcNAc(b1-3)GalNAc", "summary_of_the_method": "as §1"}, "[30]": {"biological_target": "Neu5Ac(a2-6)Gal(b1-4)GlcNAc(b1-3)Gal(b1-4)GlcNAc(b1-3)[Neu5Ac(a2-6)Gal(b1-4)GlcNAc(b1-3)Gal(b1-4)GlcNAc(b1-6)]GalNAc", "summary_of_the_method": "as §1"}, "[31]": {"biological_target": "Neu5Ac(a2-6)Gal(b1-4)GlcNAc(b1-3)Gal(b1-4)GlcNAc(b1-6)[Gal(b1-3)]GalNAc", "summary_of_the_method": "as §1"}, "[32]": {"biological_target": "Neu5Ac(a2-6)Gal(b1-4)GlcNAc(b1-3)Gal(b1-4)[Fuc(a1-3)]GlcNAc(b1-3)Gal(b1-4)[Fuc(a1-3)]GlcNAc", "summary_of_the_method": "as §1"}, "[33]": {"biological_target": "Neu5Ac(a2-6)Gal(b1-4)GlcNAc(b1-3)GalNAc", "summary_of_the_method": "as §1"}, "[34]": {"biological_target": "Neu5Ac(a2-6)Gal(b1-4)GlcNAc(b1-3)[Neu5Ac(a2-6)Gal(b1-4)GlcNAc(b1-6)]GalNAc", "summary_of_the_method": "as §1"}}, "note": "The list shows a part of the results."}
{"binder": "PX14343G-pdi-535-24-535 (Parabacteroides distasonis) (protein) LDTVPKDQLAPSTTWQTEADAKGFIVGCYKDLLDGNTLLYLDCGSDIGYNNFPWEGFRPWGDGSLSSSNPGQILYDYKSIRKANTFLENVDKVTFSSDAVKANYVAQAKAIRAYKYFLMNWWYGGVPIISSYSSADEAKVERNTEQEVRDYIAKDLDEALAGIAEAPEARGYIAKGAVLAIKMREALYYGDWQKAKDAAKAIIDLKQYELDPDYTNLFKVSGVDSKEIILADQNIETLDGLGTIGQMYNNVDQGWSSIVPTQNLVDMYEMSDGLTKEESKTYDAKHPFANRDPRMAMTILYPGRDWRGDVLNTLDEKLQDGTVNKNFPTYTDNASKSALTWAKYLDPMDQYGDVWSSGACPIVFRYAEVLLTYAEAANELSGPSDEIYGYLNQIRQRVGMGEVDKAKYGTKDKLRELIRRERTVELAGEGLRRADIVRWQEDGKMLAEKVMNGDLLRVTGTINYGESEPTKRAEITGTAVIETRQFSSRNRYLPIPQTSMDKNPNLKQNPGY", "values": [{"measurement": "glycan array binding signal (z-score)", "setting": "Neu5Ac(a2-3)GalNAc", "value": -0.944}, {"measurement": "glycan array binding signal (z-score)", "setting": "[1]", "value": -0.998}, {"measurement": "glycan array binding signal (z-score)", "setting": "[2]", "value": -0.473}, {"measurement": "glycan array binding signal (z-score)", "setting": "[3]", "value": 0.297}, {"measurement": "glycan array binding signal (z-score)", "setting": "[4]", "value": -0.823}, {"measurement": "glycan array binding signal (z-score)", "setting": "[5]", "value": -0.178}, {"measurement": "glycan array binding signal (z-score)", "setting": "Neu5Ac(a2-6)Gal", "value": 1.09}, {"measurement": "glycan array binding signal (z-score)", "setting": "[6]", "value": -0.502}, {"measurement": "glycan array binding signal (z-score)", "setting": "Neu5Ac(a2-6)Gal(b1-4)Glc", "value": -0.218}, {"measurement": "glycan array binding signal (z-score)", "setting": "[7]", "value": -0.993}, {"measurement": "glycan array binding signal (z-score)", "setting": "[8]", "value": 0.416}, {"measurement": "glycan array binding signal (z-score)", "setting": "[9]", "value": -0.421}, {"measurement": "glycan array binding signal (z-score)", "setting": "[10]", "value": -0.539}, {"measurement": "glycan array binding signal (z-score)", "setting": "[11]", "value": -1.46}, {"measurement": "glycan array binding signal (z-score)", "setting": "[12]", "value": -0.688}, {"measurement": "glycan array binding signal (z-score)", "setting": "[13]", "value": -0.409}, {"measurement": "glycan array binding signal (z-score)", "setting": "[14]", "value": 0.242}, {"measurement": "glycan array binding signal (z-score)", "setting": "[15]", "value": -0.872}, {"measurement": "glycan array binding signal (z-score)", "setting": "[16]", "value": 1.36}, {"measurement": "glycan array binding signal (z-score)", "setting": "[17]", "value": 0.034}, {"measurement": "glycan array binding signal (z-score)", "setting": "[18]", "value": -0.943}, {"measurement": "glycan array binding signal (z-score)", "setting": "[19]", "value": 0.112}, {"measurement": "glycan array binding signal (z-score)", "setting": "[20]", "value": 0.156}, {"measurement": "glycan array binding signal (z-score)", "setting": "[21]", "value": 0.879}, {"measurement": "glycan array binding signal (z-score)", "setting": "[22]", "value": 0.881}, {"measurement": "glycan array binding signal (z-score)", "setting": "[23]", "value": -0.043}, {"measurement": "glycan array binding signal (z-score)", "setting": "[24]", "value": -0.172}, {"measurement": "glycan array binding signal (z-score)", "setting": "[25]", "value": 1.44}, {"measurement": "glycan array binding signal (z-score)", "setting": "[26]", "value": -0.316}, {"measurement": "glycan array binding signal (z-score)", "setting": "[27]", "value": 0.421}, {"measurement": "glycan array binding signal (z-score)", "setting": "[28]", "value": 1.49}, {"measurement": "glycan array binding signal (z-score)", "setting": "[29]", "value": 0.038}, {"measurement": "glycan array binding signal (z-score)", "setting": "[30]", "value": -0.546}, {"measurement": "glycan array binding signal (z-score)", "setting": "[31]", "value": -0.96}, {"measurement": "glycan array binding signal (z-score)", "setting": "[32]", "value": -0.479}, {"measurement": "glycan array binding signal (z-score)", "setting": "[33]", "value": -0.432}, {"measurement": "glycan array binding signal (z-score)", "setting": "[34]", "value": -0.163}]}
